Experimental findings from paper PMC11260172 are described below.

In the assay the target is T1, CSRNP3-Flag (UniProt Q8WYN3).
T1 sequence: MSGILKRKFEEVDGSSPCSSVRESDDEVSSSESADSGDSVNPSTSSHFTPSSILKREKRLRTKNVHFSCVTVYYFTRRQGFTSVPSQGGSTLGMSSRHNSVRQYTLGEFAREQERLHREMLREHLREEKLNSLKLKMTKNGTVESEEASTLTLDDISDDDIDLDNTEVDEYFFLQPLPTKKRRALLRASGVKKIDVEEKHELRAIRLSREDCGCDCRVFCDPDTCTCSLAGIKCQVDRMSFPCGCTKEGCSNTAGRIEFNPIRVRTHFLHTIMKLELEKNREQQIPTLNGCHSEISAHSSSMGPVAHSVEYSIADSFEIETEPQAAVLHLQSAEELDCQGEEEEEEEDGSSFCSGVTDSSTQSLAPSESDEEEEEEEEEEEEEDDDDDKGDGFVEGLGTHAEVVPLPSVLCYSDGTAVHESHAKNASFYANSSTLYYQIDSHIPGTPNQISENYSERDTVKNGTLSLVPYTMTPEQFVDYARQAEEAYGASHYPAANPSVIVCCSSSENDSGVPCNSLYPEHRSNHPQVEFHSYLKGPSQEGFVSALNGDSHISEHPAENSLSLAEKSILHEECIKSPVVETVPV
Put plainly: affinity purification with mass spectrometry; IP with anti-Flag antibodies in PC-9 cells transfected with a vector expressing Flag-CSRNP3; control anti-IgG; silver staining and mass spectrometry.

These are yes or no findings as the source states them, for the method shown. Binding seen in cells or lysates may run through a third protein. These calls come from enrichment with a bait or labelling near it, and not all partners need be listed. Tags and fused reporters may be left off the sequences shown.

Take “catalytic subunit of Ser/Thr phosphatase-1 (PP1) (human (endogenous in PC-9)) (enzyme)”: the binding entry was “binds”.
